Results: article PMC4967940
No constants are given. Whether binding was seen depends on the method and setting. In cells and extracts the contact can be indirect. Some binding calls cover weakened binding; strength is not graded here.

Chains of the proteins cited; added tags and fusions are not shown. Lines headed by an entry give the natural chain unless they say otherwise; changes in a name come on top.
UniProt P98170: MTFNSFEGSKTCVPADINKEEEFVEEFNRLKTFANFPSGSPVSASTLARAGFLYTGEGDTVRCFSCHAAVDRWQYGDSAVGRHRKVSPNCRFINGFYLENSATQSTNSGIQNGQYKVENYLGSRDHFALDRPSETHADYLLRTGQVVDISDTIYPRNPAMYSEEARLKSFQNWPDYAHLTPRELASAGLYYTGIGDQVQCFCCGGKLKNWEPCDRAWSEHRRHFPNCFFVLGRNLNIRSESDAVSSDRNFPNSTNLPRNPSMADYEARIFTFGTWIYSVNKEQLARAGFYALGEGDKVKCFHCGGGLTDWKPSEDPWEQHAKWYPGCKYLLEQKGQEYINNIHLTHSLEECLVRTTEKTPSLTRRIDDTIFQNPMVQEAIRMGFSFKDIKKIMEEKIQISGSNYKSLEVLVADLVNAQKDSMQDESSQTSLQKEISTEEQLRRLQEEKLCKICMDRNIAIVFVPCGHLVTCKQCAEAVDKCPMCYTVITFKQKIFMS
UniProt Q93008: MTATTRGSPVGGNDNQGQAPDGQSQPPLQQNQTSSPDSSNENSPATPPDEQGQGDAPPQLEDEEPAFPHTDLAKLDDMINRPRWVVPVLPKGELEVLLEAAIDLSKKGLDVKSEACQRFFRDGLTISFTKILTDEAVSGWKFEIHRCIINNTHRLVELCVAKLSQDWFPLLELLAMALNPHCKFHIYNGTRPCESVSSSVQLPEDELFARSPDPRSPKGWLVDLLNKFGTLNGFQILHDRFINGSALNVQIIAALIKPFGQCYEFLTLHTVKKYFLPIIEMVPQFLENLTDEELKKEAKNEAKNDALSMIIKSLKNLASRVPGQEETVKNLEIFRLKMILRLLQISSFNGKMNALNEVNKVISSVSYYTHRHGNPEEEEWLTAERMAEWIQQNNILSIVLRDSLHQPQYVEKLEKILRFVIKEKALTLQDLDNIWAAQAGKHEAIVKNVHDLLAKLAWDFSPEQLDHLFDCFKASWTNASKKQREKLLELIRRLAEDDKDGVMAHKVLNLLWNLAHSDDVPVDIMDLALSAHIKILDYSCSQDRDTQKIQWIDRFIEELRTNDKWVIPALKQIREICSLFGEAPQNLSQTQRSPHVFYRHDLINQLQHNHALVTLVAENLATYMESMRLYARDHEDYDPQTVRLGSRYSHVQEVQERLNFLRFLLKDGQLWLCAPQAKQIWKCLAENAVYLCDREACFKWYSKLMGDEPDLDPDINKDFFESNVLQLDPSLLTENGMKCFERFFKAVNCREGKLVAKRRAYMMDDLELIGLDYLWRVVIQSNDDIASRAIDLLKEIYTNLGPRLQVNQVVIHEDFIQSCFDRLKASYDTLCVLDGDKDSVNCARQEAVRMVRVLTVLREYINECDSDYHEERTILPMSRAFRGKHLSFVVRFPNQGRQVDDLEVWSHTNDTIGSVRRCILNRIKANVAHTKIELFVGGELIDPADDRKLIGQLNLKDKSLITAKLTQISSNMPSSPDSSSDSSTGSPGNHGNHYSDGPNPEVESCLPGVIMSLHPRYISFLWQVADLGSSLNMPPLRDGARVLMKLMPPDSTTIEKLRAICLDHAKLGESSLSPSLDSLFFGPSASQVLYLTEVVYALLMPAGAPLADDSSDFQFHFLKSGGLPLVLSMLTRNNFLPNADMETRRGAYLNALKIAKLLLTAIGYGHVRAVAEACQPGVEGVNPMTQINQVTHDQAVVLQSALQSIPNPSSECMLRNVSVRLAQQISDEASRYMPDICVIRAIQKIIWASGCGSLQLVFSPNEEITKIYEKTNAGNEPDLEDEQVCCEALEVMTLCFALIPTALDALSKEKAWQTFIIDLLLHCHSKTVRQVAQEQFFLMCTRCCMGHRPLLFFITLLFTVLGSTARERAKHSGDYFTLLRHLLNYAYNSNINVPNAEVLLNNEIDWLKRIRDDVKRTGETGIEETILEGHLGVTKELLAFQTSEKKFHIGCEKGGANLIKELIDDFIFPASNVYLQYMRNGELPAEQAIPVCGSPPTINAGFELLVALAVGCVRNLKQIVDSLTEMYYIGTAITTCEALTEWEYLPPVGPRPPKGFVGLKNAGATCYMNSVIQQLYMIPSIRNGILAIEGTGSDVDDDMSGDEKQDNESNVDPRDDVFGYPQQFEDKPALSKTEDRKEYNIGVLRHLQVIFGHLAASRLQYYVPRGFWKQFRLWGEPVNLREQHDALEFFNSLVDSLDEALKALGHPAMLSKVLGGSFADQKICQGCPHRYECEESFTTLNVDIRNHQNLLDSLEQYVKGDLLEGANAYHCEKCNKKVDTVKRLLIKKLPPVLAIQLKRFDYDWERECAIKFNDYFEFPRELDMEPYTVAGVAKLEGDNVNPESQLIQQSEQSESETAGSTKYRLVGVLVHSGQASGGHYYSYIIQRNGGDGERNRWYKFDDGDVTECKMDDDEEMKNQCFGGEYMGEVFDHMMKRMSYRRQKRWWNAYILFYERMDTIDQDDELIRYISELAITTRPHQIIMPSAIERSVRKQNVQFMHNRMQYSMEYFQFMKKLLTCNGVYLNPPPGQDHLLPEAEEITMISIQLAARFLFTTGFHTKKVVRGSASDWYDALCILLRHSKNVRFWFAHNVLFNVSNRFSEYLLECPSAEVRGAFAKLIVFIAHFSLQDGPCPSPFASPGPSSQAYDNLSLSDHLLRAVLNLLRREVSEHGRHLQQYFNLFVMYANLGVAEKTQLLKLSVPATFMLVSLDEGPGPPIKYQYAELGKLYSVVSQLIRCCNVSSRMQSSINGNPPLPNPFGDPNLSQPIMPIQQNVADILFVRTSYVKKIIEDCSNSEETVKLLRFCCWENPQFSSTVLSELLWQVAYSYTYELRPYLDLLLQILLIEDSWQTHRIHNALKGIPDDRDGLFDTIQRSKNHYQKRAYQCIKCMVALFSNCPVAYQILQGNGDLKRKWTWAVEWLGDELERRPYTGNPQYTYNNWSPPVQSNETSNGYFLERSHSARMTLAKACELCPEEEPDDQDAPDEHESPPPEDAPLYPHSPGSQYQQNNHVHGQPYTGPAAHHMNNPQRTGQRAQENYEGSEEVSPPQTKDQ

How the values were obtained:
[1] = target: FLAG-tagged XIAP (X-linked inhibitor of apoptosis protein), wild type (UniProt P98170); assay: condition: only cells treated with the SMAC mimetic BV6; co-IP; FLAG-tagged XIAP with endogenous USP9X from HEK 293T cells treated with the SMAC mimetic BV6 as specified and nocodazole for 12 h
[2] = target: FLAG-tagged XIAP single amino acid mutant G188E (UniProt P98170); assay: co-IP; FLAG-tagged XIAP (wild type or mutants) transfected into HEK 293T cells, synchronized in mitosis with nocodazole or left untreated (also prolonged taxol); endogenous USP9X detected by blot; lysis buffer Tris-HCl 50 mM, NaCl 150 mM, EDTA 1 mM, Triton X-100 1%
[3] = target: FLAG-tagged XIAP single amino acid mutant G188R (UniProt P98170); assay: as above
[4] = target: FLAG-tagged XIAP (X-linked inhibitor of apoptosis protein), wild type (UniProt P98170); assay: as above

binding [1]: no binding
binding [2]: no binding
binding [3]: no binding
binding [4]: binds
Substance: ubiquitin-specific protease 9X (USP9X), endogenous (from UniProt Q93008 1-2554) (enzyme)
